Protein sequences, listed by entry. Tags and fused reporters are not part of them. Lines headed by an entry give the natural chain unless they say otherwise; changes in a name come on top.
UniProt P11308: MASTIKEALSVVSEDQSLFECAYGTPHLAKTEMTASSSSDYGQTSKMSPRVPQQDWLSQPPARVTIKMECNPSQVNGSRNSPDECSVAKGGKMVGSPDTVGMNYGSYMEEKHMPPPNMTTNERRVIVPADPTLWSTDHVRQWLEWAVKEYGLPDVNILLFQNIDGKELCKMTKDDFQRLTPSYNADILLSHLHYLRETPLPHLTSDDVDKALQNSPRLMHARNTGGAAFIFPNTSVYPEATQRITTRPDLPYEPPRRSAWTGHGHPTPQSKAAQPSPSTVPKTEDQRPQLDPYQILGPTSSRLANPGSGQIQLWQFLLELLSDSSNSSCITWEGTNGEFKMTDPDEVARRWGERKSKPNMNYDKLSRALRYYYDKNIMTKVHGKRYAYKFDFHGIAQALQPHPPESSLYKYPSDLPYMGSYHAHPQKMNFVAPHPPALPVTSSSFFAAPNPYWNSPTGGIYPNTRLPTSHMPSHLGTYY
UniProt Q7KZF4: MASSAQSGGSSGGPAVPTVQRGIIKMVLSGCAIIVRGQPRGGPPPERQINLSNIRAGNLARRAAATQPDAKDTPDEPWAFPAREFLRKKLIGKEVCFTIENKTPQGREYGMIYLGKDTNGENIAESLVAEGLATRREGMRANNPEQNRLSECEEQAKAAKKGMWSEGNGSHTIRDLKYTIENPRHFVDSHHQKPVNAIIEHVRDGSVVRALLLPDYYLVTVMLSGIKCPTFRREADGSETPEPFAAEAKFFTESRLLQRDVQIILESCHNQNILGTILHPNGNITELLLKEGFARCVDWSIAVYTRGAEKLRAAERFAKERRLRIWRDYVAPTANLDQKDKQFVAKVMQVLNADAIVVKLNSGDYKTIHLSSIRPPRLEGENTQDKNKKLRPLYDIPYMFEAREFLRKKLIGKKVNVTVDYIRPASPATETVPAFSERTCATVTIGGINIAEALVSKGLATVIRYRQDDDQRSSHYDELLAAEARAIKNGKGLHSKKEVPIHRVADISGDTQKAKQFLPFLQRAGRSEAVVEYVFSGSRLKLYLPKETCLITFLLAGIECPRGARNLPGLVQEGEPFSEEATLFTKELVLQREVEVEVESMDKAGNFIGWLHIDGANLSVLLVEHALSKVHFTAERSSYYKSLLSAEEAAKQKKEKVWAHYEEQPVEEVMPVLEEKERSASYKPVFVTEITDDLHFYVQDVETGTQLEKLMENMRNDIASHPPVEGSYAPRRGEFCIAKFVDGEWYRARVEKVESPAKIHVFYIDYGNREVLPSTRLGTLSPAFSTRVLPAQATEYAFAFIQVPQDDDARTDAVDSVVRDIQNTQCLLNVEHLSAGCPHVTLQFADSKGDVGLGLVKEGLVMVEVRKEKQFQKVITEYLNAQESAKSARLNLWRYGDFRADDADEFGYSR

In article PMC10654515:

Molecular target: HA-ERG (N-terminal HA-tagged ΔN-ERG) (human) (UniProt P11308)
Assay: co-IP; co-expressed tagged proteins in HEK293(T) cells; anti-HA agarose beads, 4 h at 4 °C; IP buffer 50 mM Tris-HCl pH 7.5, 1% Triton X-100, 50 mM NaCl, 0.1 mM EDTA; Western blot

Substance	binding
TD domain SND1 (V5-tagged) (from UniProt Q7KZF4 729-787) (domain or fragment)	binds
full-length SND1, epitope-tagged (SND1-V5) (from UniProt Q7KZF4 1-910)	binds

No constants are given. Whether binding was seen depends on the method and setting. In cells and extracts the contact can be indirect. Binding can be weak; no strength is given.
